# Source: PubChem BioAssay (Tox21)
# Chains of the proteins cited; added tags and fusions are not shown. Lines headed by an entry give the natural chain unless they say otherwise; changes in a name come on top.
# UniProt P28223, whole entry, looked up: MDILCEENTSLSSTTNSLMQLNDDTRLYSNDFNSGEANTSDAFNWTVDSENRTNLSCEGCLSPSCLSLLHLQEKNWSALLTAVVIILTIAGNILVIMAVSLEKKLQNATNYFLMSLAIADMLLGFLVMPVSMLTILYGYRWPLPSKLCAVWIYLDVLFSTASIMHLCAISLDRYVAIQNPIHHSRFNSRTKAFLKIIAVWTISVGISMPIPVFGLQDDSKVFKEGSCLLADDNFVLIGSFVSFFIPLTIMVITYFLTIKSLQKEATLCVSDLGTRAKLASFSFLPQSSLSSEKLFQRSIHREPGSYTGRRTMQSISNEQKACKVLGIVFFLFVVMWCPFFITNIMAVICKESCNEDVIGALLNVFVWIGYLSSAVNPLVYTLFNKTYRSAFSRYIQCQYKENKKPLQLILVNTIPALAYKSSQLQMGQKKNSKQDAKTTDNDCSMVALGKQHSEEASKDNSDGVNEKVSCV
# UniProt P14416, whole entry, looked up: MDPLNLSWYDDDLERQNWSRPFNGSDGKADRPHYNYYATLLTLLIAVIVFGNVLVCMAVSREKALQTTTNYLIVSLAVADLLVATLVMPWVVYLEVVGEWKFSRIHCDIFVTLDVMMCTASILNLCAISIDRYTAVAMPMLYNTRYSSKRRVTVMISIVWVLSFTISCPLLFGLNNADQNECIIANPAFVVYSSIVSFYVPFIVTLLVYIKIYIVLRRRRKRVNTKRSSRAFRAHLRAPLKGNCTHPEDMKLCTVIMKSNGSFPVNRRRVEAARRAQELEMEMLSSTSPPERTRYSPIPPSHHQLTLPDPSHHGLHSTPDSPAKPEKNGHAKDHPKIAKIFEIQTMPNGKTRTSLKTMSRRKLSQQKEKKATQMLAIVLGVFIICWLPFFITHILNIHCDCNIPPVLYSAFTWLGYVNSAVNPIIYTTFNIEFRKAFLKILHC
# UniProt P11229: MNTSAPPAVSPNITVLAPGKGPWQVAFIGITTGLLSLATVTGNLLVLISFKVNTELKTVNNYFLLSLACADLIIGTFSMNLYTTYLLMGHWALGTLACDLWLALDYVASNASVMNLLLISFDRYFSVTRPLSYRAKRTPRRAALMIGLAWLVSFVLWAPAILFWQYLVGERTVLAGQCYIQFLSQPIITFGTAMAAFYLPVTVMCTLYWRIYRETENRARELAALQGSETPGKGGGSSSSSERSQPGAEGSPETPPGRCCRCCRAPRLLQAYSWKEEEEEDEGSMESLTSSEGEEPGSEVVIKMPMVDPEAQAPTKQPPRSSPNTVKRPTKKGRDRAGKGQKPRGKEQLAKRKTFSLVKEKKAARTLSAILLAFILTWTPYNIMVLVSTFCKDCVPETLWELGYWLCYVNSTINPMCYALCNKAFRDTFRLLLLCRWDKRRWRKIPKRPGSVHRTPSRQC
# Values joined by “and” are separate entries in the source; they are usually repeats but may differ in a detail not shown here. Equal entries are not always repeated. The shares of active, inactive and inconclusive entries below differ from those in the screen. For some of these results: A potency beside an inconclusive call is a rough fit, not a confirmed value. Active and inactive are the calls of the source. Unless noted, calls come from the whole dose curve.
# Key:
# [1] = p53 small molecule agonists, cell-based qHTS assay with human liver microsomes: qHTS cell viability counter screen (AID 1963579); note: nearly all actives have a fitted effect of over 45% in size
# Outline: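 Metabolically activated exposure: compounds, human liver microsomes and NADPH (0.5 mg/mL final apiece) were added to p53RE-bla cells seeded 5 h earlier, left 16 h at 37 C, and then assessed for viability by CellTiter-Glo luminescence.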
# [2] = p53 small molecule agonists, cell-based qHTS assay (AID 1963582; active = well fitted activation curve with a large enough effect in the signal ratio in the repeat runs, not every such curve was filed as active; inconclusive = weak or mixed curves; the % refers to the signal ratio; for activation: % is set by controls: 0 for no effect and ±100 for the full control effect); details: HCT-116 p53RE-bla reporter, beta-lactamase FRET ratio, 16 h; activation: at 66 µM (top of the series) unless noted
# Outline: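 Reporter line: p53RE-bla. Pre-incubation 5 h, 37 C, 5% CO2; compound (DMSO, pin tool) 16 h, 37 C; B/G FRET substrate 2 h RT; fluorescence intensity read.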
# [3] = biological target: 5-hydroxytryptamine receptor 2A (Homo sapiens) (UniProt P28223); test: 5-hydroxytryptamine receptor 2A (HTR2A) small molecule agonists, cell-based qHTS assay (AID 1963587); details: HTR2A-CHO cells, calcium flux fluorescence, agonist mode; activation: at 76.8 µM (top of the series); note: nearly all actives have a fitted effect of over 30% in size
# Outline: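 Kinetic calcium-flux fluorescence (2 min, 1 sec intervals) after compound addition in agonist mode. HTR2A-CHO cells were cultured 18 h, then dye-loaded 1 h at 37 C.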
# [4] = cAMP Responsive Elements (CRE) small molecule agonists, cell-based qHTS assay (AID 1963590); details: CRE-bla HEK293T, beta-lactamase FRET ratio, 3 h; activation: at 92.4 µM (top of the series) unless noted
# Outline: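 HEK 293T CRE-bla, 2,000 cells/well, 18 h preincubation 37 C/5% CO2; cpds (DMSO) pinned, 3 h; LiveBLAzer B/G FRET substrate, 2 h RT.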
# [5] = cAMP Responsive Elements (CRE) small molecule antagonists, cell-based qHTS assay (AID 1963591; active = well fitted inhibition curve with a large enough effect in the signal ratio in the repeat runs, not every such curve was filed as active; inconclusive = weak or mixed curves, or effect the other way; the % refers to the signal ratio; for activity change, negative = inhibition: % is set by controls: 0 for no effect and ±100 for the full control effect); details: CRE-bla HEK293T, beta-lactamase FRET ratio; activity change, negative = inhibition: at 92.4 µM (top of the series) unless noted
# Outline: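 Beta-lactamase reporter read by FRET substrate (LiveBLAzer B/G) after 2 h at room temperature. CRE-bla HEK293T cells had received compound plus 0.25 uM (final) NKH477 for 3 h at 37 °C.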
# [6] = biological target: Beta-2 adrenergic receptor (Homo sapiens) (UniProt P07550); test: Adrenergic beta2 receptor (ADRB2) small molecule agonists, cell-based qHTS assay (AID 1963593); details: CHO-ADRB2 cells, cAMP HTRF, 30 min; activation: at 92.4 µM (top of the series) unless noted;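 for activation: CHO cells stably overexpressing human ADRB2; % is set by controls: 0 for no effect and ±100 for the full control effect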
# Outline: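 CHO cells stably over-expressing ADRB2 were plated overnight at 37C, then dosed with compounds plus a stimulation mix containing 100uM IBMX and 25uM Ro-20-1724 for 0.5hr at room temperature. cAMP was measured by HTRF competition, 1hr.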
# [7] = biological target: D(2) dopamine receptor (Homo sapiens) (UniProt P14416); test: Dopamine D2 receptor (DRD2) small molecule agonists, cell-based qHTS assay (AID 1963594); details: HEK293-DRD2 cAMP HTRF, agonist mode, 30 min; activation: at 92.4 µM (top of the series) unless noted; note: nearly all actives have a fitted effect of over 35% in size
# Outline: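 cAMP accumulation in DRD2-HEK293 cells measured by HTRF after 1 h detection; compounds added 10 min before NKH477 (200nM […]) forskolin-analogue stimulation, 30 min at room temperature, with Ro20-1724 present at 0.1 mM final.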
# [8] = p53 small molecule agonists, cell-based qHTS assay with rat liver microsomes: qHTS cell viability counter screen (AID 1963580); note: nearly all actives have a fitted effect of over 45% in size
# Outline: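 Intracellular ATP, by CellTiter-Glo luminescence, defines viability. HCT-116 p53RE-bla cells, 4,000 per well, were compound-treated in the presence of rat liver microsomes and NADPH for 16 h at 37 C.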
# [9] = biological target: Beta-2 adrenergic receptor (Homo sapiens) (UniProt P07550); test: Adrenergic beta2 receptor (ADRB2) small molecule antagonists, cell-based qHTS assay (AID 1963592); details: CHO-ADRB2 cells, isoproterenol-stimulated cAMP HTRF ratio, 0.5 h; activity change, negative = inhibition: at 92.4 µM (top of the series) unless noted; note: nearly all actives have a fitted effect of over 50% in size; for activity change, negative = inhibition: % is set by controls: 0 for no effect and ±100 for the full control effect
# Outline: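 Cells (CHO, stable ADRB2 overexpression) incubated 18-20hr at 37C; compounds added from DMSO; agonist mix (1nM isoproterenol, 100uM IBMX, 25uM Ro-20-1724) added; 0.5hr RT; d2-cAMP and anti-cAMP-cryptate added; 1hr RT; 665/615 nm read.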
# [10] = p53 small molecule agonists, cell-based qHTS assay: qHTS cell viability counter screen (AID 1963581); note: nearly all actives have a fitted effect of over 45% in size
# Outline: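 HCT-116 p53RE-bla cells, 4,000/well, plated 5 h before compound pin transfer; 16 h at 37 C; bla substrate 2 h RT; then CellTiter-Glo, 30 min RT, luminescence.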
# [11] = biological target: 5-hydroxytryptamine receptor 2A (Homo sapiens) (UniProt P28223); test: 5-hydroxytryptamine receptor 2A (HTR2A) small molecule antagonists, cell-based qHTS assay (AID 1963586); note: nearly all actives have a fitted effect of over 45% in size
# Outline: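 Antagonist-mode intracellular calcium assay: DOI (4 nM) added after 5 min compound pre-incubation at room temperature to dye-loaded HTR2A-CHO cells. Fluorescence followed for 3 min, sampled every second.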
# [12] = biological target: D(2) dopamine receptor (Homo sapiens) (UniProt P14416); test: Dopamine D2 receptor (DRD2) small molecule antagonists, cell-based qHTS assay (AID 1963595; active = well fitted inhibition curve with a large enough effect in the signal ratio in the repeat runs, with a control signal flat; inconclusive = weak or mixed curves, or effect the other way; the % refers to the signal ratio); details: HEK293-DRD2 cAMP HTRF antagonist mode; activity change, negative = inhibition: at 92.4 µM (top of the series) unless noted
# Outline: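 Readout: HTRF cAMP, cAMP-d2 competing with cellular cAMP for anti-cAMP cryptate, read after 1 h. Cells: DRD2-HEK293. Conditions: 0.1 mM Ro20-1724, 12 nM quinpirole, 200 nM NKH477, 30 min RT.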
# [13] = biological target: Muscarinic acetylcholine receptor M1 (Homo sapiens) (UniProt P11229); test: Cholinergic receptor muscarinic 1 (CHRM1) small molecule antagonists, cell-based qHTS assay (AID 1963588); note: nearly all actives have a fitted effect of over 40% in size
# Outline: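 CHRM1-CHO calcium-flux assay, antagonist mode. Cells were seeded 18 h, dye-loaded 1 h at 37 C and given compound for 5 min at RT, then acetylcholine was added at 50nM. FDSS fluorescence was read 3 min; 15 concentrations, three runs.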
# [14] = biological target: Muscarinic acetylcholine receptor M1 (Homo sapiens) (UniProt P11229); test: Cholinergic receptor muscarinic 1 (CHRM1) small molecule agonists, cell-based qHTS assay (AID 1963589); details: CHRM1-CHO cells, agonist mode, calcium flux fluorescence; activation: at 76.8 µM (top of the series); note: nearly all actives have a fitted effect of over 35% in size
# Outline: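 Human M1 in stable CHO line; 18 h plating, 1 h dye load 37 C; cpd added (agonist mode); Ca2+ fluorescence kinetic read, 1 s intervals; 15 conc, 3 runs.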
# Potency is the fitted concentration of half-maximal effect.
smiles,measurement,setting,value
CCC(C)c1cc([N+](=O)[O-])cc([N+](=O)[O-])c1OC(=O)C=C(C)C (stereo not given),Potency,[1],"inconclusive: 20.4 µM [cytotoxic, partial curve]"
same,Potency,[2],"inconclusive: 4.08 µM [fluorescent, partial curve]"
same,Potency,[3],"inconclusive: 0.0155 µM [activator, full curve, poor fit]"
same,Potency,[4],"inconclusive: 30.6 µM [fluorescent, partial curve]"
same,Potency,[5],inconclusive: 61.1 µM [fluorescent]
same,activation,[6],inconclusive: -13.7%
same,Potency,[7],"inconclusive: 68.6 µM [falling, single point]"
COc1ccc(C(=O)c2c(C)n(CCN3CCOCC3)c3ccccc23)cc1,Potency,[1],"inconclusive: 7.93 µM [rising, full curve]"
same,Potency,[8],"inconclusive: 1.78 µM [rising, full curve]"
same,Potency,[2],"inconclusive: 12.6 µM [activator, partial curve, poor fit]"
same,Potency,[4],"inconclusive: 26.6 µM [fluorescent, partial curve]"
same,Potency,[5],"inconclusive: 33.5 µM [fluorescent, partial curve, poor fit]"
same,"activity change, negative = inhibition",[9],inconclusive: -5.05% [at 42.5 µM]
same,activation,[6],inconclusive: 23.7% [at 42.5 µM]
same,Potency,[7],inconclusive: 26.6 µM
O=C(CBr)Nc1ccc(Cl)cc1C(=O)c1ccccc1F,Potency,[1],"inconclusive: 7.93 µM [rising, partial curve]"
same,Potency,[10],"inconclusive: 12.6 µM [rising, partial curve, poor fit]"
same,Potency,[2],inconclusive: 7.93 µM
same,"activity change, negative = inhibition",[5],inconclusive: 22.8% [at 42.4 µM]
CCC[CH2][Sn]([CH2]CCC)([CH2]CCC)[O]C(=O)c1ccccc1,Potency,[1],active: 3.24 µM
same,Potency,[10],active: 1.62 µM
same,Potency,[2],"inconclusive: 5.13 µM [falling, full curve]"
same,Potency,[11],active: 1.33 µM
same,Potency,[4],"inconclusive: 3.06 µM [fluorescent, full curve]"
same,Potency,[5],inconclusive: 6.39 µM [full curve]
same,Potency,[9],active: 0.864 µM
same,Potency,[6],"inconclusive: 0.193 µM [inhibitor, full curve, poor fit]"
same,Potency,[12],active: 4.86 µM
O=[Se]=O,Potency,[1],"inconclusive: 22.8 µM [cytotoxic, single point]"
same,Potency,[2],"inconclusive: 22.8 µM [activator, partial curve, poor fit]"
same,Potency,[4],"inconclusive: 19.2 µM [rising, partial curve]"
same,activation,[6],inconclusive: 23.5% [at 42.5 µM]
CC[C@]1(O)CC[C@H]2[C@@H]3CCC4=CCCC[C@@H]4[C@H]3CC[C@@]21C,Potency,[1],inactive
same,activation,[2],inconclusive: 14.5% [at 30.3 µM]
Cc1cc(C(C)(C)c2ccc(O)c(C)c2)ccc1O,Potency,[1],"inconclusive: 30.8 µM [cytotoxic, partial curve, poor fit]"
same,activation,[2],inconclusive: 17.3%
same,Potency,[3],active: 52.3 µM
same,Potency,[4],"inconclusive: 51.9 µM [activator, partial curve, poor fit]"
same,Potency,[5],"inconclusive: 73.3 µM [inhibitor, single point]"
same,activation,[6],inconclusive: 13%
Nc1ccccc1C(=O)OCCc1ccccc1,Potency,[1],inactive
same,Potency,[2],"inconclusive: 0.913 µM [falling, single point]"
same,Potency,[11],"inconclusive: 42.1 µM [inhibitor, partial curve, poor fit]"
same,Potency,[13],inactive
same,Potency,[14],"inconclusive: 21.9 µM [rising, single point]"
same,Potency,[5],inconclusive: 68.9 µM and inconclusive: 50.8 µM [partial curve]
Oc1ccc(C2(c3ccc(O)cc3)c3ccccc3-c3ccccc32)cc1,Potency,[1],active: 32.4 µM
same,Potency,[10],active: 45.8 µM
same,Potency,[2],inconclusive: 45.8 µM
same,Potency,[4],inconclusive: 68.6 µM
same,Potency,[5],inconclusive: 68.6 µM [single point]
same,activation,[6],inconclusive: -17.6%
same,Potency,[12],"inconclusive: 61.1 µM [inhibitor, single point]"
CN(CCCC(O)c1cccnc1)N=O (stereo not given),Potency,[1],inactive
same,Potency,[10],"inconclusive: 18.2 µM [rising, partial curve, poor fit]"
same,Potency,[4],inactive
COc1ccc(C=O)cc1OC,Potency,[1],"inconclusive: 32.7 µM [cytotoxic, partial curve, poor fit]"
same,Potency,[8],"inconclusive: 51.9 µM [cytotoxic, single point]"
same,Potency,[5],"inconclusive: 14.3 µM [activator, full curve]"
same,activation,[6],inconclusive: -52.5% and inconclusive: 8.06%
COc1nc(NC(C)C)nc(NC(C)C)n1,Potency,[1],"inconclusive: 18.3 µM [rising, single point]"
same,Potency,[10],"inconclusive: 28.9 µM [rising, partial curve]"
same,"activity change, negative = inhibition",[5],inconclusive: 38.3% and inconclusive: 24.7%
same,Potency,[9],inactive
Cc1cccc(C)c1NC(=O)CN1CCCC1=O,Potency,[1],inactive
same,Potency,[8],"inconclusive: 10.5 µM [cytotoxic, single point]"
same,activation,[6],inconclusive: 24.9%
Oc1c(Br)c(Br)c(Br)c(Br)c1Br,Potency,[1],active: 23.1 µM
same,Potency,[10],"inconclusive: 20.6 µM [cytotoxic, partial curve, poor fit]"
same,Potency,[11],"inconclusive: 21.2 µM [inhibitor, partial curve, poor fit]"
same,Potency,[3],"inconclusive: 62.1 µM [activator, partial curve, poor fit]"
same,Potency,[13],active: 30 µM
same,Potency,[4],"inconclusive: 61.5 µM [rising, partial curve]"
same,Potency,[5],inconclusive: 69 µM
same,Potency,[6],"inconclusive: 61.5 µM [inhibitor, partial curve, poor fit]"
O.O.O.O=C([O-])[C@H]([O-])[C@@H]([O-])C(=O)[O-].O=C([O-])[C@H]([O-])[C@@H]([O-])C(=O)[O-].[K+].[K+].[Sb+3].[Sb+3],Potency,[1],active: 36.5 µM
same,Potency,[10],"inconclusive: 32.6 µM [rising, partial curve]"
same,Potency,[4],inactive
O=C(O)/C=C\C(=O)O,Potency,[1],"inconclusive: 8.9 µM [rising, single point]"
same,Potency,[2],inactive
COc1ccc(C=O)cc1O,Potency,[1],inactive
same,Potency,[8],inactive
same,Potency,[13],"inconclusive: 0.0017 µM [inhibitor, full curve]"
same,Potency,[4],inactive
same,Potency,[6],inconclusive: 69 µM [inhibitor]

# Part of the list above, reformatted.
smiles	measurement	setting	value
CCC[CH2][Sn]([CH2]CCC)([CH2]CCC)[O]C(=O)c1ccccc1	Potency	[10]	active: 1.62 µM
O=[Se]=O	Potency	[4]	inconclusive: 19.2 µM [rising, partial curve]
Oc1ccc(C2(c3ccc(O)cc3)c3ccccc3-c3ccccc32)cc1	Potency	[10]	active: 45.8 µM
O=C(O)/C=C\C(=O)O	Potency	[2]	inactive
